Data on 4 molecules can be found in publication PMC3276557.

Sequences of proteins named here, by UniProt entry; tags and fusion partners are left off. A change or cut given only in a name is not applied to a line headed by its entry. Residues count along the entry.
UniProt P03101: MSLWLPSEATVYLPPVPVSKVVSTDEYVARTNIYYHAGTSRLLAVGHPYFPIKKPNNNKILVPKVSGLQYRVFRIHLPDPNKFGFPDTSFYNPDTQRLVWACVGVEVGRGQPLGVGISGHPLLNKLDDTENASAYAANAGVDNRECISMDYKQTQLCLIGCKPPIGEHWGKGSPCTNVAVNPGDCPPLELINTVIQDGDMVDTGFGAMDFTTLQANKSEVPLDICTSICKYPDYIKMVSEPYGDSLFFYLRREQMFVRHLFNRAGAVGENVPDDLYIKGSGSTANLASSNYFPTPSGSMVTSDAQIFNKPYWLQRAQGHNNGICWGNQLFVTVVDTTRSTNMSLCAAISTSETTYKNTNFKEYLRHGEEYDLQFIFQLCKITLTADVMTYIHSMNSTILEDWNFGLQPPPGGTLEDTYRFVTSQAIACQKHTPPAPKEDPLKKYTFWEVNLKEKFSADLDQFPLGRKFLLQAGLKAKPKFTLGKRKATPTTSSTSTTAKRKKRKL
UniProt Q99075, residues 63-148: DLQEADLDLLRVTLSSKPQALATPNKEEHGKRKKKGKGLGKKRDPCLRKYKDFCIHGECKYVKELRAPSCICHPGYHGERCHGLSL

The target in experiment [1] is HPV16 pseudovirions (PsV), capsids of L1 and L2 encapsidating a luciferase reporter plasmid (human papillomavirus type 16) (UniProt P03101). As to the kind of experiment: SEC; Sepharose 4B chromatography of concentrated (Amicon 30K) complete medium of HaCaT cells exposed to HPV16 PsV or mock, 24 h; void volume (HMW, >10^7 Da) fraction, non-reducing SDS-PAGE and immunoblot; only the target purified. On the technique in general: Size exclusion chromatography separates by hydrodynamic size, large species first.

The target is the same in experiment [2]. As to the kind of experiment: co-IP; HPV16 bound to HaCaT cells at 4°C for 1 h, washed, shifted to 37°C for 6 h or 24 h; IP of HPV16 from the complete medium with affinity purified polyclonal anti-HPV16 VLP antibody covalently attached to magnetic beads; non-reducing SDS-PAGE, immunoblot; only the target purified.
For experiment [3] the target is unchanged. As to the kind of experiment: co-IP; co-culture transwell: anti-HPV16 L1 mouse mAb on Dynabeads-Protein A in the lower chamber captures HPV16 released from PsV-exposed HaCaT donor cells, 2 or 20 h, complete medium; non-reducing SDS-PAGE, immunoblot with rabbit antiserum to syndecan-1; only the target purified.
Experiment [4] has the same target. As to the kind of experiment: co-IP; HPV16 PsV bound to HaCaT cells (500 vge/cell, 4°C, 1 h); cells lysed in cold Triton lysis buffer (1% TX100, 50 mM Tris-HCl pH 7.5, 150 mM NaCl, 1 mM EDTA); IP of HPV16 with anti-HPV16 antibody on protein A magnetic Dynabeads, 1 h, 4°C; immunoblot; for syndecan-1 with or without DTSSP cross-linking before lysis; only the target purified. Background: In western blotting, separated proteins are transferred to a membrane and probed.

These are yes or no findings as the source states them, for the method shown. For some of these results: Binding seen in cells or lysates may run through a third protein. Some binding calls cover weakened binding; strength is not graded here.

Regarding “heparin binding epidermal growth factor (HB-EGF) (from UniProt Q99075 63-148) (ligand)”, the binding result in experiment [1] and in experiment [2] was “binds” throughout.

B1: syndecan-1 ectodomain released into complete medium (CM) of HaCaT cells (domain or fragment, UniProt P18827 23-254)
chain: QIVATNLPPEDQDGSGDDSDNFSGSGAGALQDITLSQQTPSTWKDTQLLTAIPTSPEPTGLEATAASTSTLPAGEGPKEGEAVVLPEVEPGLTAREQEATPRPRETTQLPTTHLASTTTATTAQEPATSHPHRDMQPGHHETSTPAGPSQADLHTPHTEDGGPSATERAAEDGASSQLPAAEGSGEQDFTFETSGENTAVVAVEPDRRNQSPVDQGATGASQGLLDRKEVLG
modifications: heparan sulfate chains (HSPG)
As to B1, the binding result in experiment [1], in experiment [3] and in experiment [2] was “binds” in each case.

B2: syndecan-1 on HaCaT human keratinocytes (receptor, UniProt P18827 23-310)
chain: QIVATNLPPEDQDGSGDDSDNFSGSGAGALQDITLSQQTPSTWKDTQLLTAIPTSPEPTGLEATAASTSTLPAGEGPKEGEAVVLPEVEPGLTAREQEATPRPRETTQLPTTHLASTTTATTAQEPATSHPHRDMQPGHHETSTPAGPSQADLHTPHTEDGGPSATERAAEDGASSQLPAAEGSGEQDFTFETSGENTAVVAVEPDRRNQSPVDQGATGASQGLLDRKEVLGGVIAGGLVGLIFAVCLVGFMLYRMKKKDEGSYSLEEPKQANGGAYQKPTKQEEFYA
modifications: heparan sulfate chains (HSPG)
For the molecule B2, the binding result in experiment [4] is on record as “binds”.

B3: amphiregulin (AREG) (ligand, UniProt P15514 101-187)
chain: SVRVEQVVKPPQNKTESENTSDKPKRKKKGGKNGKNRRNRKKKNPCNAEFQNFCIHGECKYIEHLEAVTCKCQQEYFGERCGEKSMK
Regarding B3, the binding result in experiment [1] is “binds”.
